Assay results as given in publication PMC11226663.
These are yes or no findings as the source states them, for the method shown. Binding seen in cells or lysates may run through a third protein. Some binding calls cover weakened binding; strength is not graded here. Where a sequence is shown, tags or fusion partners need not be part of it.

What was measured:
[1] = target: T1, GST-tagged RNF214 truncation, amino acids 658–703 (RING finger domain) (human) (UniProt Q8ND24); experiment: pull-down; HEK293T cells co-transfected with GST-fusion and Venus-fusion plasmids (1 μg each), 48 h; cleared lysate on GST-tag Purification Resin at 4 °C overnight, eight washes with cell lysis buffer, western blot for GST and Venus tags
T1 sequence: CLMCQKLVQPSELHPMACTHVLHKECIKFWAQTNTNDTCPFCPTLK

[2] = target: T2, GST-tagged RNF214 truncation, amino acids 207–410 (contains the CC domain) (human) (UniProt Q8ND24); experiment: as above
T2 sequence: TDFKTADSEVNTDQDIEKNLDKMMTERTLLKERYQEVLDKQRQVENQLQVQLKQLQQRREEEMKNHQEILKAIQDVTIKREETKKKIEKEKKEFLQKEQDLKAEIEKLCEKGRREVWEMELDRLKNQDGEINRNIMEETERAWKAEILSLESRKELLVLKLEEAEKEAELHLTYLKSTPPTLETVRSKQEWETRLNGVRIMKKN

- binding [1]: no binding
- binding [2]: binds
Substance: Venus-RNF214 (RING finger protein 214, full length) (from UniProt Q8ND24 1-703)
